Laboratory results published in paper PMC12137140, “The fast-evolving FIKK kinase family of Plasmodium falciparum can be inhibited by a single compound” (Nature Microbiology, 2025).
These are yes or no findings as the source states them, for the method shown. A result given as binding can be weak or reduced; the word gives no strength.

Target: PfFIKK13^149–561_D379N (P. falciparum)
Assay: crystal structure; PfFIKK13 149–561 D379N with Nb2G9, Nb9F10 and ATPγS; sitting drops, vapour diffusion, 20 °C; space group P21; both purified

B1: Nb9F10 (VHH)
VHH: QEQLVESGGGLVQAGGSLTLSGASSGGTFETYAMGWFRQAPGKEREFAAAVSWSGGSAHYADSVKGRFTISRDKVKNTVYLQMNSLKPEDTAVYYCAADRSYGSSWYHYPEDALDAWGQGTQVTVSS
- binding: binds

B2: Nb2G9 (VHH)
VHH: QVQLVESGGGSVQAGGSLRLSCAASGRTFSSYSMAWFRQAPGKERENVAVISWSGSTSYYAESVKGRFTISRDNAKNTVYLQMNSLKPEDTAVYYCAAGPRTTPQAMGAVEYDYWGQGTQVTVSS
- binding: binds
